# The list shows a part of the results. Most values lie at the level of the controls, where differences are scatter.
# Chains of the proteins cited; added tags and fusions are not shown. Lines headed by an entry give the natural chain unless they say otherwise; changes in a name come on top.
# UniProt O88533: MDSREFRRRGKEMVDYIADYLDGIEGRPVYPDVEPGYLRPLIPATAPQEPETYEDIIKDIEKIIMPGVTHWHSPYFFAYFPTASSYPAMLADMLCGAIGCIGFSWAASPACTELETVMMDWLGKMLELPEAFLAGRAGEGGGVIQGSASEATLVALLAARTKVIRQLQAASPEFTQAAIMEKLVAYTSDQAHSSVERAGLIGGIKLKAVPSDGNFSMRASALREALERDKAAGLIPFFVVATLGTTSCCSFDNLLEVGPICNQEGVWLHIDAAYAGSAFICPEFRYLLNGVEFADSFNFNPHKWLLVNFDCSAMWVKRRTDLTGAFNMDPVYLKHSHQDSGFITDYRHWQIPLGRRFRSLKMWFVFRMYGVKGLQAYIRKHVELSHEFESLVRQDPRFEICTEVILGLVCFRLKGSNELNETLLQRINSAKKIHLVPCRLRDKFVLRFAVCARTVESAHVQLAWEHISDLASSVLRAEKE
# UniProt O55101: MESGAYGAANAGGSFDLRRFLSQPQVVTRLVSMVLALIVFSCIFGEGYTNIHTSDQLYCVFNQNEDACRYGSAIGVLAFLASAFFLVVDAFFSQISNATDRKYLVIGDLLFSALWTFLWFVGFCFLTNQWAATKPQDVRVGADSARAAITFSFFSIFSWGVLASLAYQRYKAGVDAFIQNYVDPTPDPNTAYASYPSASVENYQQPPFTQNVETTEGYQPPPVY
# UniProt O70255: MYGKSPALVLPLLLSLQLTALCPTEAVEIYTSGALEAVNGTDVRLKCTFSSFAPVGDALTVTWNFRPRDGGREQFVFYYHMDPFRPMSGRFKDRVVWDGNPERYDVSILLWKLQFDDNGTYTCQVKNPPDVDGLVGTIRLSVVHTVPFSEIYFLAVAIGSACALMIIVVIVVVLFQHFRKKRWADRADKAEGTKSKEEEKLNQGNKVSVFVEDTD
# UniProt O08579: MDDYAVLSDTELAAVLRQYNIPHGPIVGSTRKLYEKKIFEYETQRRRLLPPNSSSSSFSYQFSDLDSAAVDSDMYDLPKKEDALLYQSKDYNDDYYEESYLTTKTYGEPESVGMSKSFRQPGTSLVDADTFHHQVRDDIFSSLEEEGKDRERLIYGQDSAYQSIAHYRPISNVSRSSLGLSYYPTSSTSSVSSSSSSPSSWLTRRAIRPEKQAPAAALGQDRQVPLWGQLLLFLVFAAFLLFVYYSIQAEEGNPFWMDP
# UniProt P01804, whole entry: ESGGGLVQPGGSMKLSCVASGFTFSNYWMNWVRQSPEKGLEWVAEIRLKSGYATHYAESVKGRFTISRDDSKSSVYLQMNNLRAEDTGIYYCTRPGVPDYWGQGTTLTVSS
# UniProt O08738: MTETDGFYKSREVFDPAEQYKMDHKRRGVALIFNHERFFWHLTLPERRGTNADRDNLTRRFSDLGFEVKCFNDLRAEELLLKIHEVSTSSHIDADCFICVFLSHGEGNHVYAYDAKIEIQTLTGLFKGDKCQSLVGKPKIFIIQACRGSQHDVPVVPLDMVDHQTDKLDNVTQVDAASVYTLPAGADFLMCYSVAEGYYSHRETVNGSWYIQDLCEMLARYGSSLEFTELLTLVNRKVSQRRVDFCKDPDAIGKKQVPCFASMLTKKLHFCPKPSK
# UniProt O70570: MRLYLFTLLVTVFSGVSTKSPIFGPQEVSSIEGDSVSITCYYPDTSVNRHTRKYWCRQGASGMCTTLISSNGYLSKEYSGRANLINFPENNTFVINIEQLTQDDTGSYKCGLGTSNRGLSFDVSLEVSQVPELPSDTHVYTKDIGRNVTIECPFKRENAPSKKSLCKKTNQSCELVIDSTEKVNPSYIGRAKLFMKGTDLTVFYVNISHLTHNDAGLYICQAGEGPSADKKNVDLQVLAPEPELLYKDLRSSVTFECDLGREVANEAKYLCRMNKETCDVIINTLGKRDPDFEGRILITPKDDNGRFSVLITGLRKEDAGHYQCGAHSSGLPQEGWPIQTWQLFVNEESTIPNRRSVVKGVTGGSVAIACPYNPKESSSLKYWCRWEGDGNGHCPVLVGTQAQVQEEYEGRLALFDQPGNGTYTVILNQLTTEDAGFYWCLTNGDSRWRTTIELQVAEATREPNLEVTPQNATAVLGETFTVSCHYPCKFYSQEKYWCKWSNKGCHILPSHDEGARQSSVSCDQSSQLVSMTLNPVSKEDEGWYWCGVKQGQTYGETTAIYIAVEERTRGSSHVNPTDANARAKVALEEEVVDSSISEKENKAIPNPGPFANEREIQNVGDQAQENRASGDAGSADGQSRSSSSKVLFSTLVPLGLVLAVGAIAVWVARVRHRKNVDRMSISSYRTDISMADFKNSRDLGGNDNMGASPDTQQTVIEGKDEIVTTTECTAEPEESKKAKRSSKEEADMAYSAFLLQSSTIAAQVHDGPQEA
# UniProt O35566: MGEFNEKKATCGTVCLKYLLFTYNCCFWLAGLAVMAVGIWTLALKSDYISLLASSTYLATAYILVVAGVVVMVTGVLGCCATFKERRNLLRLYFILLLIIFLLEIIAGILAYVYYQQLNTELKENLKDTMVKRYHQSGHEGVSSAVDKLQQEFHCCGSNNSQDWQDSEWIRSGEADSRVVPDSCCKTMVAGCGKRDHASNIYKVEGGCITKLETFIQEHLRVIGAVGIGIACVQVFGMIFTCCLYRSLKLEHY
# UniProt O35490: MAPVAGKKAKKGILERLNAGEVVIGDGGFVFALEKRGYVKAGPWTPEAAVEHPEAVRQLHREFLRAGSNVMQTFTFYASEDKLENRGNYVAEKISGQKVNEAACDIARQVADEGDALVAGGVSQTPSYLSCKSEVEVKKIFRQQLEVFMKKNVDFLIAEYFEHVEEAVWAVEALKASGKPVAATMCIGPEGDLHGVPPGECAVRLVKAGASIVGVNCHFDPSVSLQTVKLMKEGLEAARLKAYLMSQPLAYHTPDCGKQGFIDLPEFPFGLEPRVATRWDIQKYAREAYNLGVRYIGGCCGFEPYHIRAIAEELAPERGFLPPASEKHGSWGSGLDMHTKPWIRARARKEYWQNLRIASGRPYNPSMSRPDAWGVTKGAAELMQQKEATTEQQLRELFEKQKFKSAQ
# UniProt O70200: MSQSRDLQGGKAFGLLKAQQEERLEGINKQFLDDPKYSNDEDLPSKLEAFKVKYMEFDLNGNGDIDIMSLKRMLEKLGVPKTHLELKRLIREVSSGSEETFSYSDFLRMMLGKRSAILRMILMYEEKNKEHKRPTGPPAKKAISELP
# UniProt O70310: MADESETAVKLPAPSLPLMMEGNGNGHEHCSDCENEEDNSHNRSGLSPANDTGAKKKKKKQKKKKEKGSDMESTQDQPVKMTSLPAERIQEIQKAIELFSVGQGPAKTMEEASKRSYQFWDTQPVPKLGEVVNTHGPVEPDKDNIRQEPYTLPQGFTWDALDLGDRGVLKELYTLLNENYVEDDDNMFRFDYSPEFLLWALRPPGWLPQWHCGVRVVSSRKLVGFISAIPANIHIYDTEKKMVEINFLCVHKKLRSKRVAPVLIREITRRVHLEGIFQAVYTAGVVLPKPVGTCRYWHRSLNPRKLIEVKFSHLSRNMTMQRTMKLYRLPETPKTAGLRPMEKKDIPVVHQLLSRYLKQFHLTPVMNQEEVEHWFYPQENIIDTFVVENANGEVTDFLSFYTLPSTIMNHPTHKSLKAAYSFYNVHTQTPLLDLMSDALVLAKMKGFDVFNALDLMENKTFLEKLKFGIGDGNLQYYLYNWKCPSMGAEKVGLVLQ
# UniProt O08663: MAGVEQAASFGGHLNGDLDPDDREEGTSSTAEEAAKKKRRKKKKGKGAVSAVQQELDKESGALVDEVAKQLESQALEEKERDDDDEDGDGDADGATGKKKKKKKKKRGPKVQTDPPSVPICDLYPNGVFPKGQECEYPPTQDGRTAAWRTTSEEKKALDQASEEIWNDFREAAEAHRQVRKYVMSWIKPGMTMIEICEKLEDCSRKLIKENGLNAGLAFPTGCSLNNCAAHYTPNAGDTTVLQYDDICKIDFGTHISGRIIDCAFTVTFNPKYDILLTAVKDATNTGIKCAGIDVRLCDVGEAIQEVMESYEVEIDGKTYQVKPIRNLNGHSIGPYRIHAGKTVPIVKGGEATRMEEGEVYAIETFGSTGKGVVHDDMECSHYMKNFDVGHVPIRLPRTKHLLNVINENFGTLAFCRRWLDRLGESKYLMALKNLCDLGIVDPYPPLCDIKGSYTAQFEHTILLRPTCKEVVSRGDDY
# UniProt O08915: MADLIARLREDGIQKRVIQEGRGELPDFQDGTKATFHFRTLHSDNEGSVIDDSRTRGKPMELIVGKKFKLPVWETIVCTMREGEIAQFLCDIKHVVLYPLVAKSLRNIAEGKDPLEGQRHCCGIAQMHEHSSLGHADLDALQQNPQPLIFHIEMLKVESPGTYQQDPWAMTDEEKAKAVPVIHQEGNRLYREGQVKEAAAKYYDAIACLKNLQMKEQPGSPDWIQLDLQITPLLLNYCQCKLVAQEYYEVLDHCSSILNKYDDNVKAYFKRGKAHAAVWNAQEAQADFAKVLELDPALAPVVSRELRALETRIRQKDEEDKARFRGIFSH
# UniProt O35350: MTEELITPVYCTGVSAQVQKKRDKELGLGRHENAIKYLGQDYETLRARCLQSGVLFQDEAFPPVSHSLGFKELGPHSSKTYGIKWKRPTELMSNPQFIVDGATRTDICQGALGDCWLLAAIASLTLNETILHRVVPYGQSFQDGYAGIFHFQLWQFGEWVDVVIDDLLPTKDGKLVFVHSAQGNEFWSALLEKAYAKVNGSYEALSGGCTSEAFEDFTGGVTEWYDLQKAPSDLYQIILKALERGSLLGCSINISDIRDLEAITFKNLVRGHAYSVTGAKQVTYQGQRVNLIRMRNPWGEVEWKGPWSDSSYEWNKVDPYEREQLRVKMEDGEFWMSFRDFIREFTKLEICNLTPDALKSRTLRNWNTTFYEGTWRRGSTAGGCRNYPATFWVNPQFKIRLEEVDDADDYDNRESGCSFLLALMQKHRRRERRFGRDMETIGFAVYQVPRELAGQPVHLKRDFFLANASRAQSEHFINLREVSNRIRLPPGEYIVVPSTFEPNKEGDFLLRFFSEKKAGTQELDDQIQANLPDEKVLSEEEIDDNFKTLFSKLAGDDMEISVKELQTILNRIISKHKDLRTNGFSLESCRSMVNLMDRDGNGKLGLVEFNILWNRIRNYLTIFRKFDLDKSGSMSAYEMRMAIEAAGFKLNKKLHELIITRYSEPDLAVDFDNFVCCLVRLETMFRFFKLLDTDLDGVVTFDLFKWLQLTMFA
# UniProt O54824: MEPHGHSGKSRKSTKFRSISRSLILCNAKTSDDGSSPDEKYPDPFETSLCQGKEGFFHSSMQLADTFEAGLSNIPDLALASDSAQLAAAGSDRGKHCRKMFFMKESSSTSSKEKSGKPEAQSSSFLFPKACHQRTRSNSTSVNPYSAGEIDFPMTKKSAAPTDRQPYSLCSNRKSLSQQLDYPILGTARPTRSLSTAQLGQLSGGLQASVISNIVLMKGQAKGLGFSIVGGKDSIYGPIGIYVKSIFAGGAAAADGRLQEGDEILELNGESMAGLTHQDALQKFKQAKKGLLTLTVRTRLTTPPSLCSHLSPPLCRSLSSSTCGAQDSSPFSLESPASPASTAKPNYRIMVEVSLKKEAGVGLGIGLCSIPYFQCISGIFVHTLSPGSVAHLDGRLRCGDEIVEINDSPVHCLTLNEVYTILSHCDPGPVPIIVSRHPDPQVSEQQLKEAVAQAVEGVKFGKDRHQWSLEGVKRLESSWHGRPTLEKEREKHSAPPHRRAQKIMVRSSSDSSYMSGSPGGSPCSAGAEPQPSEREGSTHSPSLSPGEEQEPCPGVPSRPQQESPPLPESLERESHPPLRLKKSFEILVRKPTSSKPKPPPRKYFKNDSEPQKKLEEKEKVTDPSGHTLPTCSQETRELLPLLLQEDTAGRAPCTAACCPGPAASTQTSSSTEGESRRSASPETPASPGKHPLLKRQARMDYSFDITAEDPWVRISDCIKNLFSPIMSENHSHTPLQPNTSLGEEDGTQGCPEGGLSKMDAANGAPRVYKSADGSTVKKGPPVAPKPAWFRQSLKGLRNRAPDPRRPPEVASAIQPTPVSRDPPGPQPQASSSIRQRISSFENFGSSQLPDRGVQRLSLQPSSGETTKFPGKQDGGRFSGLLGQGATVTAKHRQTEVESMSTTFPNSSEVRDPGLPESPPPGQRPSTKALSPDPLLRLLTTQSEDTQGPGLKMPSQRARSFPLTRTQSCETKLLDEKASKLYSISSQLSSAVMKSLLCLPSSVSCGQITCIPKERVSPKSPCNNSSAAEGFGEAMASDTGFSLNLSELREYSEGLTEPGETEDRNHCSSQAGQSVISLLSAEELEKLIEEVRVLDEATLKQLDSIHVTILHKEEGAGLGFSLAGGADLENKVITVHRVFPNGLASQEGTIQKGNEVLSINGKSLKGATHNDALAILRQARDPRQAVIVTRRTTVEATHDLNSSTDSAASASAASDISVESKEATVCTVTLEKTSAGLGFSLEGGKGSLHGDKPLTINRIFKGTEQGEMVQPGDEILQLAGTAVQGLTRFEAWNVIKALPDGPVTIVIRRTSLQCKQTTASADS
# Compound: CN[C@@H]1C[C@H]2O[C@@](C)([C@@H]1OC)n1c3ccccc3c3c4c(c5c6ccccc6n2c5c31)C(=O)NC4 [staurosporine]
# Experiment: log2 fold change of pooled soluble protein (PISA), ligand vs vehicle (log2 ratio); higher = more thermally stabilized
# Settings: ligand concentration: 20 uM; assay format: PISA pool 52.9/55.5/58.6 C
row,Target,log2 fold change of pooled soluble protein
1,UniProt O88487,-0.0111
2,UniProt O88533,-0.554
3,UniProt O08810,0.031
4,UniProt O88393,0.0586
5,UniProt O88630,0.0881
6,UniProt O70152,-0.132
7,UniProt O55101,-0.041
8,UniProt O08553,-0.0244
9,UniProt O35728,-0.0734
10,UniProt O70279,0.328
11,UniProt F8VPU2,0.125
12,UniProt O70255,0.0416
13,UniProt O35744,0.0166
14,P01806;P01807;P01808;P01809;P01812,0.102
15,UniProt O70133,-0.111
16,UniProt O70423,0.421
17,UniProt O35488,0.0301
18,UniProt O08579,-0.0112
19,UniProt P01804,-0.158

row,Target,log2 fold change of pooled soluble protein
1,UniProt O88545,0.109
2,UniProt O08738,-0.151
3,UniProt O70570,0.000156
4,UniProt O35566,-0.188
5,UniProt O35490,-0.306
6,UniProt O70200,0.0195
7,UniProt O70310,0.157
8,UniProt O70303,0.2
9,UniProt O88322,-0.0907
10,UniProt O35326,-0.00668
11,UniProt O08691,-0.148
12,UniProt O54724,-0.104
13,UniProt O08663,-0.00725
14,UniProt O08915,-0.229
15,UniProt O54941,-0.0413
16,Q8BR92 (UniProt O54931),0.0793
17,UniProt O35350,-0.196
18,UniProt O54824,0.00307

# Some values from above.
# log2 fold change of pooled soluble protein with UniProt O35326 is entered as -0.00668
# log2 fold change of pooled soluble protein with UniProt O08915 is entered as -0.229
